Record: PubChem BioAssay AID1259267 (Sanger Institute, 2017)

- Aim: 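Essential and drug-synergistic knock-downs in GP5D bowel cancer cells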 (primary screen)
- System: human GP5D colorectal cancer cells
- Reagent: siRNA pool against human genes
- Challenge: anchor drugs at low dose: BYL719 1 µM, cetuximab 5 µg/ml, trametinib 10 nM, or DMSO vehicle
- Measured: 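Mean replicate viability versus non-targeting pool, given as knock-down-alone robust z-score, DMSO fraction, and synergy with low-dose BYL719, cetuximab or trametinib (1 µM, 5 µg/ml, 10 nM)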
- Scale: robust z-score, knock-down alone and viability with DMSO: higher = more viable cells
- Units: viability with DMSO in fraction of control
- Active means: 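a robust z-score below -3 for the knock-down by itself makes a gene active, i.e. essential alone; synergy scores are ignored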
- Calls: active = essential alone; inactive = not essential
In all, the deposit lists 794 reagents; below is a part drawn at random. 9 of them (1.1%) count as active. 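Viability capped at 1; calls reflect loss of viability from knock-down alone, not synergy with drugs.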 A number with no mark means an inactive call. Further read-outs or replicates are left out here. Reagent sequences are not shown. Not stated in the record: the amount of reagent, the time to read-out.

For MAP3K12 (mitogen-activated protein kinase kinase kinase 12), the entry reads robust z-score, knock-down alone 0.482; viability with DMSO 0.929. After knock-down of ADCK2 (aarF domain containing kinase 2) the results were robust z-score, knock-down alone -1.71; viability with DMSO 0.465. PLK2 (polo like kinase 2) scored robust z-score, knock-down alone 0.817; viability with DMSO 1. With knock-down of MYLK (myosin light chain kinase), the record shows robust z-score, knock-down alone -0.676; viability with DMSO 0.683.

Part of the list above in another layout:
| gene | robust z-score, knock-down alone | viability with DMSO |
| --- | --- | --- |
| MAP3K12 (mitogen-activated protein kinase kinase kinase 12) | 0.482 | 0.929 |
| ADCK2 (aarF domain containing kinase 2) | -1.71 | 0.465 |

More results follow:
With knock-down of CDK8 (cyclin dependent kinase 8), the screen gave robust z-score, knock-down alone 0.613; viability with DMSO 0.957. Against GSK3A (glycogen synthase kinase 3 alpha), the entry reads robust z-score, knock-down alone 0.817; viability with DMSO 1. After knock-down of MAPK3 (mitogen-activated protein kinase 3) the results were robust z-score, knock-down alone -2.21; viability with DMSO 0.358. For CDKN2C (cyclin dependent kinase inhibitor 2C) the deposit lists robust z-score, knock-down alone -1.24; viability with DMSO 0.564. EXOSC10 (exosome component 10) scored robust z-score, knock-down alone -0.119; viability with DMSO 0.802. With knock-down of CDC42BPB (CDC42 binding protein kinase beta), the screen gave robust z-score, knock-down alone 0.817; viability with DMSO 1.

With knock-down of BCKDK (branched chain keto acid dehydrogenase kinase), the record shows robust z-score, knock-down alone 0.817; viability with DMSO 1. With knock-down of TAF1 (TATA-box binding protein associated factor 1) the results were robust z-score, knock-down alone -0.275; viability with DMSO 0.768.
